Measurements as given in doi:10.1101/2024.03.06.583679.
No constants are given. Whether binding was seen depends on the method and setting. In cells and extracts the contact can be indirect. Some results given as binding are weak or reduced against the parent protein; the word gives no strength.

Molecular target: human STAT2, HA-tagged (HA-STAT2-Myc) (human), P52630
Assay: co-IP
Conditions: remark: other sources report otherwise

B1: interferon regulatory factor 9 (IRF9), Q00978 1-393 (protein)
chain: MASGRARCTRKLRNWVVEQVESGQFPGVCWDDTAKTMFRIPWKHAGKQDFREDQDAAFFKAWAIFKGKYKEGDTGGPAVWKTRLRCALNKSSEFKEVPERGRMDVAEPYKVYQLLPPGIVSGQPGTQKVPSKRQHSSVSSERKEEEDAMQNCTLSPSVLQDSLNNEEEGASGGAVHSDIGSSSSSSSPEPQEVTDTTEAPFQGDQRSLEFLLPPEPDYSLLLTFIYNGRVVGEAQVQSLDCRLVAEPSGSESSMEQVLFPKPGPLEPTQRLLSQLERGILVASNPRGLFVQRLCPIPISWNAPQAPPGPGPHLLPSNECVELFRTAYFCRDLVRYFQGLGPPPKFQVTLNFWEESHGSSHTPQNLITVKMEQAFARYLLEQTPEQQAAILSLV
- binding: binds
